Source: the supplement of paper PMC12823440, “Inhibitors supercharge kinase turnover through native proteolytic circuits” (Nature, 2025)
Where a name gives a salt, the structure may show the parent alone. This is one part of the list. Hit calls seldom repeat between salt and free forms of one compound.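 Kinases were expressed as nanoluciferase fusions in K562 cells and luminescence was read every 4 h between 2 and 18 h as percent of control, DMSO set to 100% and a positive control to 0%. A time point counts as decreased when the signal drops significantly (2 sigma). The hit call is the authors' own, does not follow from the count of time points alone, and its rule is not shown.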

Sequences of proteins named here, by UniProt entry; tags and fusion partners are left off. A change or cut given only in a name is not applied to a line headed by its entry.
UniProt Q15208: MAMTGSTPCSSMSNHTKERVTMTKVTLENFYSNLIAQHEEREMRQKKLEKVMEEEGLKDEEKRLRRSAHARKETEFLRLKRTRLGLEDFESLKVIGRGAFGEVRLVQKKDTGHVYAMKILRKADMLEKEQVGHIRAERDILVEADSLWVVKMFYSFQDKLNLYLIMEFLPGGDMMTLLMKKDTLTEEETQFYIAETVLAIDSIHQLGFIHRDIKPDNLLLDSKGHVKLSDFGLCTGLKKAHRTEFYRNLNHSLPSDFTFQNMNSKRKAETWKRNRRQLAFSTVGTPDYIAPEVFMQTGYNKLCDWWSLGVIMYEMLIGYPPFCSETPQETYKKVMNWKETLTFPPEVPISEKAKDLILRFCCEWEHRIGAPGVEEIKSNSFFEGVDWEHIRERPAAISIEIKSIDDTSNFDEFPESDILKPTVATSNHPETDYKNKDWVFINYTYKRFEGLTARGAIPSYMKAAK
UniProt P42680: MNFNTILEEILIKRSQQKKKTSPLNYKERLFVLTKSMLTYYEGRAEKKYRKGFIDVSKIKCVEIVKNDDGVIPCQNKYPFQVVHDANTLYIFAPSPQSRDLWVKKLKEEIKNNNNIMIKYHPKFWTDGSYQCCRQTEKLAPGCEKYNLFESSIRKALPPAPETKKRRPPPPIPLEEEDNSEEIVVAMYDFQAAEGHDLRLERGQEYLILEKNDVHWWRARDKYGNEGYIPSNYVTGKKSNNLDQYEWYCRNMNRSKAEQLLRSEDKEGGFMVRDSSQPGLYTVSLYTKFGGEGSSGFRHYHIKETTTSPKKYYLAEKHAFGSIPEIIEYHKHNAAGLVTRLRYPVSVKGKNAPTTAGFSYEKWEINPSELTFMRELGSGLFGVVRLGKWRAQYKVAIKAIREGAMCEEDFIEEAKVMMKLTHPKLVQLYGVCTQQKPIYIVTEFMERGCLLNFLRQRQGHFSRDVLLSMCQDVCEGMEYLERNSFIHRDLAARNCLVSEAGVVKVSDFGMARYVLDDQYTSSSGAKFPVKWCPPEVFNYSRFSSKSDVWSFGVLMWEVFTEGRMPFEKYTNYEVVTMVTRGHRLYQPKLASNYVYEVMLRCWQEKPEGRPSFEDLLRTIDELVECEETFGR
UniProt P29597: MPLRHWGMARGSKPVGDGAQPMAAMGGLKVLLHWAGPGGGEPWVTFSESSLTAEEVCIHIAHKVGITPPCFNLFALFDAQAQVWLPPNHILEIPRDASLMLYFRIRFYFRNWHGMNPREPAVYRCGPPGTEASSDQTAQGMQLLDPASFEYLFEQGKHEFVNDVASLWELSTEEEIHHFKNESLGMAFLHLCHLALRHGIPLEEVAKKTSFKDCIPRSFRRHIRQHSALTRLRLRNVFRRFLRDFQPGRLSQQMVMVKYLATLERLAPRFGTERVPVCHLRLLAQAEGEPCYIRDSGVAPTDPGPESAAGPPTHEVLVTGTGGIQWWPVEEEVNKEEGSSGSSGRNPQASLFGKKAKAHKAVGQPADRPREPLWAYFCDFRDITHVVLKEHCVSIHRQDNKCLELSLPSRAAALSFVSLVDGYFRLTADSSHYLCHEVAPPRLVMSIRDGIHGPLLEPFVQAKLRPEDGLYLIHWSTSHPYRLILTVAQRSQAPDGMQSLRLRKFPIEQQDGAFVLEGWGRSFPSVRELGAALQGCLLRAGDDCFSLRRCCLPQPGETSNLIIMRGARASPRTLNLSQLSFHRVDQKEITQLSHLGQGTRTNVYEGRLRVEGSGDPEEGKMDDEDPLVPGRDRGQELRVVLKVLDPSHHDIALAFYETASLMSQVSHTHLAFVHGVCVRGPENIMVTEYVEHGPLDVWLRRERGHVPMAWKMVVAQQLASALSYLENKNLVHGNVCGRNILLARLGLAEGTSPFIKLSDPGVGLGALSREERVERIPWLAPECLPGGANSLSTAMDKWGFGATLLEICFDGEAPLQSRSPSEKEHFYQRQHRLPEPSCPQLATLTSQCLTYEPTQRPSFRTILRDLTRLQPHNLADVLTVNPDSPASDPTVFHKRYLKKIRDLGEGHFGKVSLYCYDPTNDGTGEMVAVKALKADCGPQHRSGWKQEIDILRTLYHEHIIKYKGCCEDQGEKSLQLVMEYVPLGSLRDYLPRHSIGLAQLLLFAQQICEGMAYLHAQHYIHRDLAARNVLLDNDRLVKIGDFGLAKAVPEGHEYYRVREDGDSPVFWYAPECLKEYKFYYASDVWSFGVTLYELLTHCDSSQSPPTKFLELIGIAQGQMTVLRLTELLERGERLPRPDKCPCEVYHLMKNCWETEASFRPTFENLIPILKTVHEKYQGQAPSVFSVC
UniProt Q6PHR2: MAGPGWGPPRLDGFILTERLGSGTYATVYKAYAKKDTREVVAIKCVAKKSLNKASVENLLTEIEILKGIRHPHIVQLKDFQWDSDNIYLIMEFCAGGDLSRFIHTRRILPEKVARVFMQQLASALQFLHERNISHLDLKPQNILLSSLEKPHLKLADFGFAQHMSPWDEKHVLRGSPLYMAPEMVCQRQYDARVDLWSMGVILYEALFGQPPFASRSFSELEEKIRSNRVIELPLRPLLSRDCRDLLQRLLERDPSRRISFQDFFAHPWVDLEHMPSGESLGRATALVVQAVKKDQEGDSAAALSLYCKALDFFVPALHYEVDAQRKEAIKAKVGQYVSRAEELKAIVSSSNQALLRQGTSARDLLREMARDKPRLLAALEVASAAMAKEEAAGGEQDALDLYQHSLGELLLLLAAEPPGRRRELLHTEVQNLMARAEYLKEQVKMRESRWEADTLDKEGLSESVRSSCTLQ
UniProt P07947, whole entry, looked up: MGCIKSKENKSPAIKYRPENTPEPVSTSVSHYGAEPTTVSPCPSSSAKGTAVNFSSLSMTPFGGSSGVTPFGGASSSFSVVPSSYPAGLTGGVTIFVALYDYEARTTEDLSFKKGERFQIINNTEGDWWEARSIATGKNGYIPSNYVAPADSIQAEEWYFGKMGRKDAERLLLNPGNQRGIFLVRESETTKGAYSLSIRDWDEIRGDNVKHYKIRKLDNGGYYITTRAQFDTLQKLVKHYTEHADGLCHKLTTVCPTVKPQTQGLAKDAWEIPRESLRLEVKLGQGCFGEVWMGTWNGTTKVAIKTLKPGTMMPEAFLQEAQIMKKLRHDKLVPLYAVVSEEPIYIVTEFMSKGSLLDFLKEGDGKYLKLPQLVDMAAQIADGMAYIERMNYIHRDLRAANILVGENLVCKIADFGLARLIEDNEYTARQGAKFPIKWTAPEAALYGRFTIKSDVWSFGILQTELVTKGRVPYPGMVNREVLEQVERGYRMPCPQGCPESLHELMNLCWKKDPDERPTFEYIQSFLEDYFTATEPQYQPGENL
UniProt P43403: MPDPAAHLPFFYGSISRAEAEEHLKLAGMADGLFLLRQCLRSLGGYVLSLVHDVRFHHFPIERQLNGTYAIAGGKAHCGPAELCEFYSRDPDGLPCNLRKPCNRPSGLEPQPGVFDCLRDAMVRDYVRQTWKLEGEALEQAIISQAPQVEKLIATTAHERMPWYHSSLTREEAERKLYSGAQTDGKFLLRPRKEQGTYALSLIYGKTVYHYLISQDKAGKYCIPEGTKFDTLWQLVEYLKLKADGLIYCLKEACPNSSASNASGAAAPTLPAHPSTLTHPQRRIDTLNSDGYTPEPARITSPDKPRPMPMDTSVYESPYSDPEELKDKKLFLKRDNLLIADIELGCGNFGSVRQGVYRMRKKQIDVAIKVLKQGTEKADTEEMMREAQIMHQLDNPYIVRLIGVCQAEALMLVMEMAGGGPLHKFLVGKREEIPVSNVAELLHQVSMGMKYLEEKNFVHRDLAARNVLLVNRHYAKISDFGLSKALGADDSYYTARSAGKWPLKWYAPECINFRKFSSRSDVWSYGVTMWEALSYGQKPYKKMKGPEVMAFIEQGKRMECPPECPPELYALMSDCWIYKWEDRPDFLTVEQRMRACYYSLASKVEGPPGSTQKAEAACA
UniProt P11802: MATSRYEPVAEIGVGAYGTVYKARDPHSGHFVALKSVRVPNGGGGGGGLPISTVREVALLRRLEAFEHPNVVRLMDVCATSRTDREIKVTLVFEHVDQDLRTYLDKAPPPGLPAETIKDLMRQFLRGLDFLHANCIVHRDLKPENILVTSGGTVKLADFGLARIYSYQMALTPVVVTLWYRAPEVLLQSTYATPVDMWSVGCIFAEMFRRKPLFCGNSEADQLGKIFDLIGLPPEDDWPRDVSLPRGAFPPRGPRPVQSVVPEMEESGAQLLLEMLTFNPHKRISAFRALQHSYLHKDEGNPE
UniProt P50613: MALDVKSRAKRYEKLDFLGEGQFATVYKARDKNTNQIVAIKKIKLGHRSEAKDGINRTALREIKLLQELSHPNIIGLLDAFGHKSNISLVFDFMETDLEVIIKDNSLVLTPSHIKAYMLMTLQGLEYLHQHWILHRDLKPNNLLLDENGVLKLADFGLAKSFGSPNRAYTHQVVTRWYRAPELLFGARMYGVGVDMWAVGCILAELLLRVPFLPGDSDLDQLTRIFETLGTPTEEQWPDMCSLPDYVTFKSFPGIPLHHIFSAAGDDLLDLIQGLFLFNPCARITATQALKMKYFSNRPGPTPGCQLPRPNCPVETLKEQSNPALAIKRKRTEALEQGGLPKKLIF
UniProt P50750, whole entry: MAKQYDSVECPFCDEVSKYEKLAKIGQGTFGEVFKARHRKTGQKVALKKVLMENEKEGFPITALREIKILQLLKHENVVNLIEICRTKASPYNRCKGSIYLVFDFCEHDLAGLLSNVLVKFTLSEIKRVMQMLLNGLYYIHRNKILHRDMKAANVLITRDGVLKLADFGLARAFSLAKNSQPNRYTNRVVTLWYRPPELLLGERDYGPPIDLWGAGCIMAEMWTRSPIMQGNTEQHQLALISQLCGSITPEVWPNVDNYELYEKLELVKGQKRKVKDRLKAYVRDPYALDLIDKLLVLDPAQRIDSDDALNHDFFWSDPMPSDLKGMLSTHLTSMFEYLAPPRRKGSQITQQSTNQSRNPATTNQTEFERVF

How the values were obtained:
Details in all cases: K562, 2-18 h
[1] = target: STK38 (UniProt Q15208); test: kinase-Nluc reporter destabilization hit call (1 = scored as downregulated) (binary); higher = compound decreases kinase abundance
[2] = target: SYK (UniProt P43405); test: as above
[3] = target: TEC (UniProt P42680); test: as above
[4] = target: TYK2 (UniProt P29597); test: as above
[5] = target: ULK3 (UniProt Q6PHR2); test: as above
[6] = target: YES1 (UniProt P07947); test: as above
[7] = target: ZAK (UniProt Q9NYL2); test: as above
[8] = target: ZAP70 (UniProt P43403); test: as above
[9] = target: CDK4 (UniProt P11802); test: number of time points (of 4; 2 h point missing) at which kinase-Nluc abundance scored as decreased, DMSO-normalised (count); higher = more persistent destabilization
[10] = target: CDK7 (UniProt P50613); test: as above
[11] = target: CDK9 (UniProt P50750); test: as above

O=C(Nc1cnn2ccc(N3CCC[C@@H]3c3cc(F)ccc3F)nc12)N1CC[C@H](O)C1 [Larotrectinib sulfate]
inactive: kinase-Nluc reporter destabilization hit call ([1]; 10 µM) 0 | kinase-Nluc reporter destabilization hit call ([2]; 10 µM) 0 | kinase-Nluc reporter destabilization hit call ([3]; 10 µM) 0 | kinase-Nluc reporter destabilization hit call ([4]; 10 µM) 0 | kinase-Nluc reporter destabilization hit call ([5]; 10 µM) 0 | kinase-Nluc reporter destabilization hit call ([6]; 10 µM) 0 | kinase-Nluc reporter destabilization hit call ([7]; 10 µM) 0 | kinase-Nluc reporter destabilization hit call ([8]; 10 µM) 0
0: number of time points ([9]; 10 µM) | number of time points ([10]; 10 µM) | number of time points ([11]; 10 µM)

CNc1ncc2cc(-c3ccc(-c4cccc(C)n4)cc3Cl)c(=O)n(C[C@H]3OC[C@H](N)CO3)c2n1 [G-5555 (hydrochloride)]
0: number of time points ([9]; 10 µM) | number of time points ([11]; 10 µM)
1: number of time points ([10]; 10 µM)
inactive: kinase-Nluc reporter destabilization hit call ([1]; 10 µM) 0 | kinase-Nluc reporter destabilization hit call ([2]; 10 µM) 0 | kinase-Nluc reporter destabilization hit call ([3]; 10 µM) 0 | kinase-Nluc reporter destabilization hit call ([4]; 10 µM) 0 | kinase-Nluc reporter destabilization hit call ([5]; 10 µM) 0 | kinase-Nluc reporter destabilization hit call ([6]; 10 µM) 0 | kinase-Nluc reporter destabilization hit call ([7]; 10 µM) 0 | kinase-Nluc reporter destabilization hit call ([8]; 10 µM) 0

c1cc(-c2cnn3cc(-c4ccc(OCCN5CCCCC5)cc4)cnc23)ccn1 [Dorsomorphin (dihydrochloride)]
0: number of time points ([9]; 2.5 µM) | number of time points ([11]; 2.5 µM)
inactive: kinase-Nluc reporter destabilization hit call ([1]; 2.5 µM) 0 | kinase-Nluc reporter destabilization hit call ([2]; 2.5 µM) 0 | kinase-Nluc reporter destabilization hit call ([3]; 2.5 µM) 0 | kinase-Nluc reporter destabilization hit call ([4]; 2.5 µM) 0 | kinase-Nluc reporter destabilization hit call ([5]; 2.5 µM) 0 | kinase-Nluc reporter destabilization hit call ([6]; 2.5 µM) 0 | kinase-Nluc reporter destabilization hit call ([7]; 2.5 µM) 0 | kinase-Nluc reporter destabilization hit call ([8]; 2.5 µM) 0
1: number of time points ([10]; 2.5 µM)

Cc1cc(Nc2ncc(Cl)c(Nc3ccccc3S(=O)(=O)C(C)C)n2)c(OC(C)C)cc1C1CCNCC1 [Ceritinib]
inactive: kinase-Nluc reporter destabilization hit call ([1]; 2.5 µM) 0 | kinase-Nluc reporter destabilization hit call ([2]; 2.5 µM) 0 | kinase-Nluc reporter destabilization hit call ([3]; 2.5 µM) 0 | kinase-Nluc reporter destabilization hit call ([4]; 2.5 µM) 0 | kinase-Nluc reporter destabilization hit call ([5]; 2.5 µM) 0 | kinase-Nluc reporter destabilization hit call ([6]; 2.5 µM) 0 | kinase-Nluc reporter destabilization hit call ([7]; 2.5 µM) 0 | kinase-Nluc reporter destabilization hit call ([8]; 2.5 µM) 0
0: number of time points ([9]; 2.5 µM) | number of time points ([10]; 2.5 µM) | number of time points ([11]; 2.5 µM)

Cc1ccc(NC(=O)c2ccc(CN3CCN(C)CC3)cc2)cc1Nc1nc(-c2cccnc2)cs1 [Masitinib (mesylate)]
0: number of time points ([9]; 2.5 µM) | number of time points ([11]; 2.5 µM)
inactive: kinase-Nluc reporter destabilization hit call ([1]; 2.5 µM) 0 | kinase-Nluc reporter destabilization hit call ([2]; 2.5 µM) 0 | kinase-Nluc reporter destabilization hit call ([3]; 2.5 µM) 0 | kinase-Nluc reporter destabilization hit call ([4]; 2.5 µM) 0 | kinase-Nluc reporter destabilization hit call ([5]; 2.5 µM) 0 | kinase-Nluc reporter destabilization hit call ([6]; 2.5 µM) 0 | kinase-Nluc reporter destabilization hit call ([7]; 2.5 µM) 0 | kinase-Nluc reporter destabilization hit call ([8]; 2.5 µM) 0
1: number of time points ([10]; 2.5 µM)

O=C(O)c1ccc2c(c1)nc(Nc1cccc(Cl)c1)c1ccncc12 [Silmitasertib (sodium salt)]
inactive: kinase-Nluc reporter destabilization hit call ([1]; 10 µM) 0 | kinase-Nluc reporter destabilization hit call ([2]; 10 µM) 0 | kinase-Nluc reporter destabilization hit call ([3]; 10 µM) 0 | kinase-Nluc reporter destabilization hit call ([4]; 10 µM) 0 | kinase-Nluc reporter destabilization hit call ([5]; 10 µM) 0 | kinase-Nluc reporter destabilization hit call ([6]; 10 µM) 0 | kinase-Nluc reporter destabilization hit call ([7]; 10 µM) 0 | kinase-Nluc reporter destabilization hit call ([8]; 10 µM) 0
0: number of time points ([9]; 10 µM) | number of time points ([10]; 10 µM) | number of time points ([11]; 10 µM)

C[C@@H](N)c1ccc(C(=O)Nc2ccnc3[nH]ccc23)cc1
inactive: kinase-Nluc reporter destabilization hit call ([1]; 10 µM) 0 | kinase-Nluc reporter destabilization hit call ([2]; 10 µM) 0 | kinase-Nluc reporter destabilization hit call ([3]; 10 µM) 0 | kinase-Nluc reporter destabilization hit call ([4]; 10 µM) 0 | kinase-Nluc reporter destabilization hit call ([5]; 10 µM) 0 | kinase-Nluc reporter destabilization hit call ([6]; 10 µM) 0 | kinase-Nluc reporter destabilization hit call ([7]; 10 µM) 0 | kinase-Nluc reporter destabilization hit call ([8]; 10 µM) 0
0: number of time points ([9]; 10 µM) | number of time points ([10]; 10 µM) | number of time points ([11]; 10 µM)

CCCCCCCCc1ccc(CCC(N)(CO)CO)cc1 [Fingolimod (hydrochloride)]
inactive: kinase-Nluc reporter destabilization hit call ([1]; 2.5 µM) 0 | kinase-Nluc reporter destabilization hit call ([2]; 2.5 µM) 0 | kinase-Nluc reporter destabilization hit call ([3]; 2.5 µM) 0 | kinase-Nluc reporter destabilization hit call ([4]; 2.5 µM) 0 | kinase-Nluc reporter destabilization hit call ([5]; 2.5 µM) 0 | kinase-Nluc reporter destabilization hit call ([6]; 2.5 µM) 0 | kinase-Nluc reporter destabilization hit call ([7]; 2.5 µM) 0 | kinase-Nluc reporter destabilization hit call ([8]; 2.5 µM) 0
0: number of time points ([9]; 2.5 µM) | number of time points ([10]; 2.5 µM) | number of time points ([11]; 2.5 µM)

Quoted at random: 2 records from the list
O=C(Nc1cnn2ccc(N3CCC[C@@H]3c3cc(F)ccc3F)nc12)N1CC[C@H](O)C1 [Larotrectinib sulfate]
inactive: kinase-Nluc reporter destabilization hit call ([1]; 10 µM) 0 | kinase-Nluc reporter destabilization hit call ([2]; 10 µM) 0 | kinase-Nluc reporter destabilization hit call ([3]; 10 µM) 0 | kinase-Nluc reporter destabilization hit call ([4]; 10 µM) 0 | kinase-Nluc reporter destabilization hit call ([5]; 10 µM) 0 | kinase-Nluc reporter destabilization hit call ([6]; 10 µM) 0 | kinase-Nluc reporter destabilization hit call ([7]; 10 µM) 0 | kinase-Nluc reporter destabilization hit call ([8]; 10 µM) 0
0: number of time points ([9]; 10 µM) | number of time points ([10]; 10 µM) | number of time points ([11]; 10 µM)

Cc1cc(Nc2ncc(Cl)c(Nc3ccccc3S(=O)(=O)C(C)C)n2)c(OC(C)C)cc1C1CCNCC1 [Ceritinib]
inactive: kinase-Nluc reporter destabilization hit call ([1]; 2.5 µM) 0 | kinase-Nluc reporter destabilization hit call ([2]; 2.5 µM) 0 | kinase-Nluc reporter destabilization hit call ([3]; 2.5 µM) 0 | kinase-Nluc reporter destabilization hit call ([4]; 2.5 µM) 0 | kinase-Nluc reporter destabilization hit call ([5]; 2.5 µM) 0 | kinase-Nluc reporter destabilization hit call ([6]; 2.5 µM) 0 | kinase-Nluc reporter destabilization hit call ([7]; 2.5 µM) 0 | kinase-Nluc reporter destabilization hit call ([8]; 2.5 µM) 0
0: number of time points ([9]; 2.5 µM) | number of time points ([10]; 2.5 µM) | number of time points ([11]; 2.5 µM)

More structures follow:

Cc1cccc(/C=N/Nc2cc(N3CCOCC3)nc(OCCc3ccccn3)n2)c1 [Apilimod]
0: number of time points ([9]; 2.5 µM) | number of time points ([10]; 2.5 µM) | number of time points ([11]; 2.5 µM)
inactive: kinase-Nluc reporter destabilization hit call ([1]; 2.5 µM) 0 | kinase-Nluc reporter destabilization hit call ([2]; 2.5 µM) 0 | kinase-Nluc reporter destabilization hit call ([3]; 2.5 µM) 0 | kinase-Nluc reporter destabilization hit call ([4]; 2.5 µM) 0 | kinase-Nluc reporter destabilization hit call ([5]; 2.5 µM) 0 | kinase-Nluc reporter destabilization hit call ([6]; 2.5 µM) 0 | kinase-Nluc reporter destabilization hit call ([8]; 2.5 µM) 0

C=CC(=O)Nc1cc(Nc2nccc(-c3cn(C)c4ccccc34)n2)c(OC)cc1N(C)CCN(C)C [Osimertinib]
0: number of time points ([9]; 2.5 µM) | number of time points ([10]; 2.5 µM) | number of time points ([11]; 2.5 µM)
inactive: kinase-Nluc reporter destabilization hit call ([1]; 2.5 µM) 0 | kinase-Nluc reporter destabilization hit call ([2]; 2.5 µM) 0 | kinase-Nluc reporter destabilization hit call ([3]; 2.5 µM) 0 | kinase-Nluc reporter destabilization hit call ([4]; 2.5 µM) 0 | kinase-Nluc reporter destabilization hit call ([5]; 2.5 µM) 0 | kinase-Nluc reporter destabilization hit call ([6]; 2.5 µM) 0 | kinase-Nluc reporter destabilization hit call ([7]; 2.5 µM) 0 | kinase-Nluc reporter destabilization hit call ([8]; 2.5 µM) 0

FC(F)(F)c1ccc(CNc2ccc(Cc3c[nH]c4ncc(Cl)cc34)cn2)cn1 [Pexidartinib (hydrochloride)]
0: number of time points ([9]; 10 µM) | number of time points ([10]; 10 µM) | number of time points ([11]; 10 µM)
inactive: kinase-Nluc reporter destabilization hit call ([1]; 10 µM) 0 | kinase-Nluc reporter destabilization hit call ([2]; 10 µM) 0 | kinase-Nluc reporter destabilization hit call ([3]; 10 µM) 0 | kinase-Nluc reporter destabilization hit call ([5]; 10 µM) 0 | kinase-Nluc reporter destabilization hit call ([6]; 10 µM) 0 | kinase-Nluc reporter destabilization hit call ([7]; 10 µM) 0 | kinase-Nluc reporter destabilization hit call ([8]; 10 µM) 0

COc1ccc2c(c1)C(c1ccc(F)cc1)=C(CN1CCCC1)CO2 [AX-024 hydrochloride]
inactive: kinase-Nluc reporter destabilization hit call ([1]; 10 µM) 0 | kinase-Nluc reporter destabilization hit call ([2]; 10 µM) 0 | kinase-Nluc reporter destabilization hit call ([3]; 10 µM) 0 | kinase-Nluc reporter destabilization hit call ([4]; 10 µM) 0 | kinase-Nluc reporter destabilization hit call ([5]; 10 µM) 0 | kinase-Nluc reporter destabilization hit call ([6]; 10 µM) 0 | kinase-Nluc reporter destabilization hit call ([7]; 10 µM) 0 | kinase-Nluc reporter destabilization hit call ([8]; 10 µM) 0
0: number of time points ([9]; 10 µM) | number of time points ([10]; 10 µM) | number of time points ([11]; 10 µM)
